From patent CN110885375A
These are yes or no findings as the source states them, for the method shown. Some entries that bind do so weakly or less than the wild type.

Sequences of proteins named here, by UniProt entry; tags and fusion partners are left off. Residues count along the entry.
UniProt P14780, residues 20-707: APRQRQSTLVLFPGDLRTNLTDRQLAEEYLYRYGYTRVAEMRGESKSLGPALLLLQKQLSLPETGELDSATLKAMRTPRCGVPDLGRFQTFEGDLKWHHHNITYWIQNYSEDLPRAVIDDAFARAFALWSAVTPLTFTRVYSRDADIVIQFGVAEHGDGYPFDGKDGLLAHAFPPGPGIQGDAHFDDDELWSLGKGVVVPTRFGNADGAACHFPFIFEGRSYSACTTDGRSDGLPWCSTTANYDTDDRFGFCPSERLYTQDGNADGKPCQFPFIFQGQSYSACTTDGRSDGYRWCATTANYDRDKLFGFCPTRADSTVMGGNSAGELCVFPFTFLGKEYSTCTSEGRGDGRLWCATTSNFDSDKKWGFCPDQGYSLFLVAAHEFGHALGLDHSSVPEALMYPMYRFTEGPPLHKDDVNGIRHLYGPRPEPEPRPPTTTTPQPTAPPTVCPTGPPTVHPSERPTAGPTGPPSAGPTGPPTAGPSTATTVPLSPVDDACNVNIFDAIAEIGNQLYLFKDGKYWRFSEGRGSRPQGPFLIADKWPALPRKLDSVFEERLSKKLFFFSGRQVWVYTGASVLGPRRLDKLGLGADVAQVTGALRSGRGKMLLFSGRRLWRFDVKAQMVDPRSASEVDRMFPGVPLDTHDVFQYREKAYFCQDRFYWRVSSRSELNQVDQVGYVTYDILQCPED

Assays:
MMP-9蛋白 (基质金属蛋白酶-9) [1] = target: MMP-9蛋白 (基质金属蛋白酶-9) (UniProt P14780); assay: ELISA of purified antibody on coated antigen, HRP anti-HA or anti-human Fc detection, OD450
MMP-9蛋白 (基质金属蛋白酶-9) [2] = target: MMP-9蛋白 (基质金属蛋白酶-9) (UniProt P14780); assay: ELISA of crude periplasmic extracts on coated protein, anti-HA detection; positive if OD450 > 5x control well

Binder	binding (MMP-9蛋白 (基质金属蛋白酶-9) [1])	binding (MMP-9蛋白 (基质金属蛋白酶-9) [2])
SEQ ID NO 10 (VHH) VHH: QVQLQESGGGSVQAGGSLRLSCAASGYTYCGYRMSWYRQAPGKEREFVSSMRADGSTSYADSVKGRFTISQDNAKNILYLQMNSLKPEDTAMYYCKADLSTRYSTYADCPNKWGQGTQVTVSS	binds	binds
SEQ ID NO 4 (VHH) VHH: QVQLQESGGGSVQTGGSLRLSCAASSYTFSTSCVAWFRQAPGKEREGVAGILFNGLTSYTDSVKGRFTVSKDNAKNTLYLQMNSLKPEDTAMYYCAAVSSPAGCLAPLRADSYTYWGQGTQVTVSS	binds	binds
SEQ ID NO 1 (VHH) VHH: QVQLQESGGGSVQAGGSLRLSCAVSGYDLSSYCMGWFRQAPGKAREGVAAIEKFGVPIYADSVKGRFAASKDYAKNTVYLQMNGLKPEDTAMYYCAADRYCGAGPLEPLRYRYWGQGTQVTVSS	binds	binds
SEQ ID NO 8 (VHH) VHH: QVQLQESGGGSVQAGGSLRLSCAASTASGYSDCRYRMSWYRRAPGKEREFVSSIWSDGSIRYADSVKGRFTISQDNAKNTMYLQMNSLKPEDTAMYFCKADLSIWSGRCPNTWGQGTQVTVSS	binds	binds

Continued, values first:

binding (MMP-9蛋白 (基质金属蛋白酶-9) [1])	binding (MMP-9蛋白 (基质金属蛋白酶-9) [2])	Binder
binds	binds	SEQ ID NO 11 (VHH) VHH: QVQLQESGGGSVQAGGSLRLSCVASGYTYCGYRMSWYRQAPGKEREFVSAIRGDGSTSYADSVKGRFTISQDNAKNTVYLQMNSLKPEDTAMYYCKADHSWDFTPRCPTQIWGQGTQVTVSS
binds	binds	SEQ ID NO 14 (VHH) VHH: QVQLQESGGGSVQSGGSLRLSCVASGYTYCGYRMSWYRQAPGKEREFVSAIRGDGSTSYADSVKGRFTISQDNAKNTVYLQMNSLKPEDTAMYYCKADHSWDFTPRCPTSIWGQGTQVTVSS
binds	binds	SEQ ID NO 13 (VHH) VHH: QVQLQESGGGSVQAGESLRLSCVASGYTYCGYRMSWYRQAPGKEREFVSAIRGDGSTSYADSVKGRFTISQDNAKNTVYLQMNSLKPEDTAMYYCKADHSWDFTPRCPTSIWGQGTQVTVSS
binds	binds	SEQ ID NO 12 (VHH) VHH: QVQLQESGGGSVQAGGSLRLSCVASGYTYCGYRMSWYRQAPGKEREFVSAIRGDGSTSYADSVKGRFTISQDNAKNTVYLQMNSLKPEDTAMYYCKADHSWDFTPRCPTSIWGQGTQVTVSS
